PMC9554091
These are yes or no findings as the source states them, for the method shown. In cells and extracts the contact can be indirect.

The chains behind the UniProt entries cited, without tags or fusion partners.
UniProt Q05397: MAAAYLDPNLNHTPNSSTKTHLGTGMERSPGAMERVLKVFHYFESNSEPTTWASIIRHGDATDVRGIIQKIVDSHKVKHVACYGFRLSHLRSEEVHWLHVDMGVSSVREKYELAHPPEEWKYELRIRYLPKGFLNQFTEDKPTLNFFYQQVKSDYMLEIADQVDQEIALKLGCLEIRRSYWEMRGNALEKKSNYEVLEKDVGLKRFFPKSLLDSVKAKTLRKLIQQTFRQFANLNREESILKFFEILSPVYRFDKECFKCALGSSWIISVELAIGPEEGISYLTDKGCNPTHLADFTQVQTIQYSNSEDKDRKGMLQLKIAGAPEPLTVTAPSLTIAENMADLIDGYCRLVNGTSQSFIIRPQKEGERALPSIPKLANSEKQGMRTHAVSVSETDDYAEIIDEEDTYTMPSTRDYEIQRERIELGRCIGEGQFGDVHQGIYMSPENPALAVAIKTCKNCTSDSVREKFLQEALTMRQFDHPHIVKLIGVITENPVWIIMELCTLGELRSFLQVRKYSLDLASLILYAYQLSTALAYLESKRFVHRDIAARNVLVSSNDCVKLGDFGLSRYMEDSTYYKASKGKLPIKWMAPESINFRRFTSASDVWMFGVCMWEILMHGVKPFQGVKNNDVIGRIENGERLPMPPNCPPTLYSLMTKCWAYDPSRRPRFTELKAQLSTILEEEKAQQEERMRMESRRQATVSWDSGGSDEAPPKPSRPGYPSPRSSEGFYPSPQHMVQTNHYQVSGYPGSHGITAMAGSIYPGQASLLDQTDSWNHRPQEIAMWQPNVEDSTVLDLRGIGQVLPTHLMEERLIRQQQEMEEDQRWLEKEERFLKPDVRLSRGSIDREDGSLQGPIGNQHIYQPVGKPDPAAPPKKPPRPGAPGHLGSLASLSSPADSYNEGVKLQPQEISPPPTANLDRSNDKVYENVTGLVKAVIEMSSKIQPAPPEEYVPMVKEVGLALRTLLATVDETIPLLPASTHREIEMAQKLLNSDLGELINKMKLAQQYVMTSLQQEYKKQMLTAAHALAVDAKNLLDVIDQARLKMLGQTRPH
UniProt P01106: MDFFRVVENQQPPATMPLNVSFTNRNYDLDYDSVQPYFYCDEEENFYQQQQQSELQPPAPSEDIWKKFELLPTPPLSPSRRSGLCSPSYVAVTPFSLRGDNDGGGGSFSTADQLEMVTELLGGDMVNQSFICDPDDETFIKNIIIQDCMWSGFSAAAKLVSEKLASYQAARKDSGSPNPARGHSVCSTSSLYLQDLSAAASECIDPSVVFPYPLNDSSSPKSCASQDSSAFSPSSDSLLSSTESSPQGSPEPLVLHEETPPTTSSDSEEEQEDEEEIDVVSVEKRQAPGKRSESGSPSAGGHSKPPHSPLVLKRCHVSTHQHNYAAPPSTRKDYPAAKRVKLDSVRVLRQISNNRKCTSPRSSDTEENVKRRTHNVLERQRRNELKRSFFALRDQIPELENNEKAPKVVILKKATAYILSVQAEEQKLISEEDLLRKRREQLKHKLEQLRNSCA

Target: focal adhesion kinase (FAK) (UniProt Q05397)
Assay: co-IP; co-IP of c-Myc and FAK, told only in the discussion; cells, bait and conditions not stated

Substance: c-Myc (from UniProt P01106 1-454)
- binding: no binding
